Assay results taken from publication PMC8390506.
These are yes or no findings as the source states them, for the method shown. Some binding calls cover weakened binding; strength is not graded here.

By UniProt entry, the sequences of proteins in these tests, tags left out.
UniProt Q6NUF4: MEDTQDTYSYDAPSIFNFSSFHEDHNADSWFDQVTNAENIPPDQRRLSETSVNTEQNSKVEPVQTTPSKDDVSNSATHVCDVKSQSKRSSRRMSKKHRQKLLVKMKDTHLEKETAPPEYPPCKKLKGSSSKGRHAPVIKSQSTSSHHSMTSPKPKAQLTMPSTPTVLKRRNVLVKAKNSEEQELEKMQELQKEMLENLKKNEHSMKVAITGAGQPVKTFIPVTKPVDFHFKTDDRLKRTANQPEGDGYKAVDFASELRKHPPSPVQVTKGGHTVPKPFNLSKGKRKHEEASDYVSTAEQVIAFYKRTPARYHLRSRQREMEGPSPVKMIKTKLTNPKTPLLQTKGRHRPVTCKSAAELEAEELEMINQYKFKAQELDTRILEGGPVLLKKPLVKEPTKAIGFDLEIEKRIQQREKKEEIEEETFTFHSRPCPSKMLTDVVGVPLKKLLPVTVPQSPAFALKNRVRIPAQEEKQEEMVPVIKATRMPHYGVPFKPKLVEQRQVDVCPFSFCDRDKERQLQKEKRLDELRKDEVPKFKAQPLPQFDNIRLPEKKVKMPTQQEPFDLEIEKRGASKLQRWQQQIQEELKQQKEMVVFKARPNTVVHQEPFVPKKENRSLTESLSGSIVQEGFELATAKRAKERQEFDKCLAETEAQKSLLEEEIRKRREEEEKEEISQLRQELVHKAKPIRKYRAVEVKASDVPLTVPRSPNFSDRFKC
UniProt P52297: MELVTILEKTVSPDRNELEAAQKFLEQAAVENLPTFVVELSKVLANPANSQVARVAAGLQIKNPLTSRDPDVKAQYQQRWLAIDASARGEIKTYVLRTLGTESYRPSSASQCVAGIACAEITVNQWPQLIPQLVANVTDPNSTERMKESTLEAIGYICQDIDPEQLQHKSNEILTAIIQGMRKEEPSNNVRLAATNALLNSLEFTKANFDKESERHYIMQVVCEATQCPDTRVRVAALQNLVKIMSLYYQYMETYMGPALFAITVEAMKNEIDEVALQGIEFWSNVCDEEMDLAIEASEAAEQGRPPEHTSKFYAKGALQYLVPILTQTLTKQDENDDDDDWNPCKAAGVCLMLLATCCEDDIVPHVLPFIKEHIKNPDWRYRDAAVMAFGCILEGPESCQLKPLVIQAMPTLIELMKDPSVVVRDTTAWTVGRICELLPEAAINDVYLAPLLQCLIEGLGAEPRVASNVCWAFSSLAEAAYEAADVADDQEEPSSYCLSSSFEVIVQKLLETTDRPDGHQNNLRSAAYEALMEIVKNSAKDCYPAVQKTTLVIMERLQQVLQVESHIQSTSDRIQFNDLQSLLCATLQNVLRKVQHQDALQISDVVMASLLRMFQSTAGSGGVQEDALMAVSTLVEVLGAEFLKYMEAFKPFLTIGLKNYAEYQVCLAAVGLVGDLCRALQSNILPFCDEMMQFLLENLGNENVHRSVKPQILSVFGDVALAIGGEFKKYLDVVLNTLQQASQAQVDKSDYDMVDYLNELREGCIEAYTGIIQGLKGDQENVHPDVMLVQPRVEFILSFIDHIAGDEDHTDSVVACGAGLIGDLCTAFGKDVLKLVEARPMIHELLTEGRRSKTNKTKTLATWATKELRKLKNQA

How the values were obtained:
[1] = target: Targeting Protein for XKlp2 (TPX2), full length, wild type (Xenopus laevis) (UniProt Q6NUF4); assay: SEC-MALS; Superdex-200-increase 3.2/300; TPX2 with importin-β (Fig. S1C); both purified
[2] = target: Targeting Protein for XKlp2 (TPX2), full length, wild type (Xenopus laevis) (UniProt Q6NUF4); assay: SEC-MALS; Superdex-200-increase 3.2/300 in line with a Wyatt light scattering machine; GFP-TPX2 alone, importin-α/β alone and TPX2 with importin-α/β (TPX2 printed as 5 M, importin-α/β 15 μM); both purified
[3] = target: Targeting Protein for XKlp2 (TPX2), full length, wild type (Xenopus laevis) (UniProt Q6NUF4); assay: SEC; AKTA Pure-25L; TPX2 kept at 2 μM, importin-β varied from 2 to 30 μM; area under the peak of the eluted complexes (1.2-1.6 ml, A280); both purified

Measured: binding

importin-β (from UniProt P52297 1-876)
binds weakly: all assays above
